We go through 27 compounds from PubChem BioAssay AID180 (DTP/NCI, 2004).

The list shows only some results of the screen, not a fair sample: it is rich in T/C values a quarter to a half above the control, in often repeated tests (any T/C) and in doses without a T/C. Further doses and runs are listed elsewhere. T/C: endpoint of the treated group in % of that of the vehicle group. Schedule codes are those of the source, read here as Q, the interval in days (D) or hours (H), X, the number of doses. Some T/C values are followed by the survivors on the day toxicity was checked, most often the fifth; without a count, all were alive then. Some doses have a count of surviving animals in place of a T/C: the source files T/C as zero there, which appears to mark a toxic dose or a test without result, not a measured value. Counts of survivors are from the toxicity check (mostly the fifth day) where no day follows; animals may have died later. Some entries hold several experiments; the results are listed from low to high. Some schedules carry Z or #; the key to these is not given. Non-standard residues stand in square brackets, D forms with d. Residues, ends and D or L forms follow the SMILES beside them. ξ: configuration not given here. Ac5c = NC1(C(=O)O)CCCC1; ξS = NC(CO)C(=O)O

This assay has as its system BDF1 mice, Adenocarcinoma 755 s.c., tumor weight T/C. As to the kind of experiment: NCI In Vivo Anticancer Drug Screen. Data for tumor model Adenocarcinoma 755 (subcutaneous) in B6D2F1 (BDF1) mice. Conditions: T/C endpoint: mean tumor weight, higher T/C = larger tumour; for T/C: evaluated on day 12. The method, boiled down:
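Transplantable tumor implanted; mice dosed with compound or vehicle; survival or tumor size recorded; ratio of treated to vehicle control reported.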

Where [1] appears, read: dose: 1.0 mg/kg/injection, schedule: Q01DX011 (ip), vehicle: saline.
Setting [2] is: dose: 500.0 mg/kg/injection, schedule: Q01DX011 (ip), vehicle: carboxymethylcellulose (CMC).
Setting [3] is: dose: 100.0 mg/kg/injection, schedule: Q01DX011 (ip), vehicle: carboxymethylcellulose (CMC).
The mark [4] stands for this setting: dose: 200.0 mg/kg/injection, schedule: Q01DX011 (ip), vehicle: carboxymethylcellulose (CMC).
Where [5] appears, read: dose: 400.0 mg/kg/injection, schedule: Q01DX011 (ip), vehicle: carboxymethylcellulose (CMC).
Where [6] appears, read: dose: 50.0 mg/kg/injection, schedule: Q01DX011 (ip), vehicle: carboxymethylcellulose (CMC).
Setting [7] is: dose: 250.0 mg/kg/injection, schedule: Q01DX011 (ip), vehicle: carboxymethylcellulose (CMC).
The mark [8] stands for this setting: dose: 1000.0 mg/kg/injection, schedule: Q01DX011 (ip), vehicle: carboxymethylcellulose (CMC).

Turning to `NC(=O)c1ccc(NC(=O)/C=C/C(=O)Nc2ccc(C(N)=O)cn2)nc1`, the survivor count (dose: 3.75 mg/kg/injection, schedule: Q01DX011 (ip), vehicle: carboxymethylcellulose (CMC)) is reported as 4 of 10.

On to `CCCCCCCCOP(=O)(N1CC1)N1CC1`, for which the survivor count under setting [1] was 4 of 10 and the survivor count (dose: 6.75 mg/kg/injection, schedule: Q01DX011 (ip), vehicle: saline) is reported as 2 of 10.

For the compound `ClCCn1cnc2c(SCc3ccccc3Cl)ncnc21`, the T/C (dose: 1.0 mg/kg/injection, schedule: Q01DX011 (oral), vehicle: other) is 145 % of control.

As for `CCN(CC)P(=O)(N1CC1)N1CC1`, the survivor count (dose: 16.0 mg/kg/injection, schedule: Q01DX011 (ip), vehicle: other) is listed as 2 of 10.

As for `O=CN(O)CC(=O)O`, the survivor count under setting [2] is 6 of 10.

Turning to `CC(C)n1cnc2c(=S)nc[nH]c21`, the survivor count was 6 of 10 under setting [3], 0 of 10 under setting [4] and 0 of 10 under setting [5].

Consider `CS(=O)(=O)OCCC(=O)NCCCNC(=O)CCOS(C)(=O)=O`, for which the survivor count is, setting by setting: (dose: 28.0 mg/kg/injection, schedule: Q01DX011 (ip), vehicle: methylcellulose (MC)) 2 of 10; (dose: 113.0 mg/kg/injection, schedule: Q01DX011 (ip), vehicle: methylcellulose (MC)) 6 of 10.

Turning to `COC(C(O)C(O)C(O)C(O)CO)n1cnc2cncnc21` (stereo not drawn), the T/C (dose: 170.0 mg/kg/injection, schedule: Q01DX011 (ip), vehicle: carboxymethylcellulose (CMC)) is 147 % of control.

Consider `[Br][Hg][CH2]C1COC([CH2][Hg][Br])CO1` (stereo not drawn), for which the survivor count is, setting by setting: under setting [6], 3 of 10; under setting [3], 0 of 10; under setting [4], 0 of 10.

On to `c1ccc(N2N=C3N(c4ccccc4)C2N3c2ccccc2)cc1`, for which the survivor count (dose: 30.0 mg/kg/injection, schedule: Q01DX011 (ip), vehicle: other) was 4 of 10.

In the case of `CCCCSc1ncnc2nc[nH]c12`, the survivor count runs as follows: under setting [7], 2 of 10; under setting [8], 0 of 10.

Consider `CC(=O)c1cc(C)[nH]c1C`, for which the survivor count by setting is: (dose: 230.0 mg/kg/injection, schedule: Q01DX011 (ip), vehicle: carboxymethylcellulose (CMC)) 6 of 10; (dose: 230.0 mg/kg/injection, schedule: Q01DX011 (ip), vehicle: methylcellulose (MC)) 1 of 10 and 6 of 10.

With `C=CCc1c[nH]c(=O)[nH]c1=O`, for the setting “dose: 500.0 mg/kg/injection, schedule: Q01DX011 (ip), vehicle: saline”, the survivor count was 5 of 10.

As to `Nc1nnnc2nc[nH]c12`, for the setting “dose: 25.0 mg/kg/injection, schedule: Q01DX011 (ip), vehicle: carboxymethylcellulose (CMC)”, the survivor count is 1 of 10.

For `Nc1ncnc2nc(/N=N/SCCC(=O)O)[nH]c12`, the survivor count (dose: 300.0 mg/kg/injection, schedule: Q01DX011 (ip), vehicle: saline) is 4 of 10.

Consider `Nc1nc(SCc2ccccn2)c2[nH]cnc2n1`, for which the survivor count by setting is: under setting [6], 3 of 10; under setting [3], 0 of 10.

For `O=CC1CO1` (stereo not drawn), the survivor count (dose: 100.0 mg/kg/injection, schedule: Q01DX011 (ip), vehicle: saline) is given as 0 of 10.

Consider `O=c1[nH]cnc2n[nH]nc12`, for which the survivor count reads like this: (dose: 31.25 mg/kg/injection, schedule: Q#A X022 (ip), vehicle: methylcellulose (MC)) 2 of 10; (dose: 62.5 mg/kg/injection, schedule: Q01DX011 (ip), vehicle: methylcellulose (MC)) 1 of 10; (dose: 125.0 mg/kg/injection, schedule: Q02DX006 (ip), vehicle: methylcellulose (MC)) 5 of 10; (dose: 250.0 mg/kg/injection, schedule: Q01DX011 (oral), vehicle: methylcellulose (MC)) 5 of 10.

Take `COC(=O)[C@@H]1c2cc3c(c(O)c2[C@@H](OC2OC(C)C(OC)C(C)(OC)C2OC)C[C@]1(C)O)C(=O)c1c(O)cc2c(c1C3=O)O[C@H]1O[C@]2(C)[C@H](O)[C@@H](N(C)C)[C@@H]1O` (stereo partly drawn): the T/C (dose: 0.2 mg/kg/injection, schedule: Q01DX011 (ip), vehicle: saline) is 137 % of control [9 of 10 alive] and the T/C (dose: 0.67 mg/kg/injection, schedule: Q01DX011 (ip), vehicle: saline) was 132 % of control. Under setting [1], the survivor count is recorded as 3 of 10.

For `O=c1[nH]c(=O)n(C2CC(O)C(CO)O2)cc1I` (stereo not drawn), the survivor count is given as 5 of 10 under setting [7], 0 of 10 under setting [2] and 0 of 10 under setting [8].

Consider `CCCCn1cnc2c(SCc3ccccn3)nc(N)nc21`, for which the survivor count (dose: 31.25 mg/kg/injection, schedule: Q01DX011 (ip), vehicle: methylcellulose (MC)) is listed as 3 of 10.

In the case of `S=P(N1CCCCCC1)(N1CC1)N1CC1`, the survivor count runs as follows: (dose: 4.0 mg/kg/injection, schedule: Q01DX011 (ip), vehicle: carboxymethylcellulose (CMC)) 3 of 10; (dose: 27.0 mg/kg/injection, schedule: Q01DX011 (ip), vehicle: methylcellulose (MC)) 4 of 10; (dose: 60.0 mg/kg/injection, schedule: Q01DX011 (ip), vehicle: carboxymethylcellulose (CMC)) 0 of 10; (dose: 81.0 mg/kg/injection, schedule: Q01DX011 (ip), vehicle: saline) 2 of 10.

For the compound `C=CCC1(CCC)C(=O)NC(=O)NC1=O`, the survivor count was 6 of 10 (dose: 70.0 mg/kg/injection, schedule: Q01DX011 (ip), vehicle: methylcellulose (MC)); 3 of 10 and 5 of 10 (dose: 140.0 mg/kg/injection, schedule: Q01DX011 (ip), vehicle: methylcellulose (MC)).

As for `O=C(O)C(=O)O.[U]`, the survivor count (dose: 100.0 mg/kg/injection, schedule: Q01DX011 (ip), vehicle: other) is 6 of 10.

As to `NC(CO)C(=O)NC1(C(=O)O)CCCC1` (stereo not drawn) (H-[ξS]-[Ac5c]-OH), for the setting “dose: 360.0 mg/kg/injection, schedule: Q01DX011 (ip), vehicle: carboxymethylcellulose (CMC)”, the survivor count is 2 of 10.

For the compound `CCCCNS(=O)(=O)c1ncnc2nc[nH]c12`, the survivor count by setting is: under setting [4], 0 of 10; under setting [5], 0 of 10.

Regarding `CCCCN(C)N=Nc1ccc(C(N)=O)cc1`, under setting [3], the survivor count is listed as 6 of 10.
